Test results: PMC5519928 (Biopolymers, 2017)

assay: general procedure: peptide synthesis; Fmoc-protected Rink Amide resin (loading 0.54 mmol g^-1); DIC (bromoacetic acid, sub-monomer method); conditions: whole synthesis, 220 nm, scale of the general procedure 0.1 mmol

| Substance | final HPLC purity [%] |
| --- | --- |
| PEPTIDE1{[NLys].[Nspe].[Nspe].[NLys].[Nspe].[Nspe].[NLys].[Nspe].[Nspe].[NLys].[Nspe].[Nspe].[am]}$$$$V2.0 | >95 |
| PEPTIDE1{[NLys].[Nspe].[Nspe].[NLys].[Nspe].[Nspe].[NLys].[Nspe].[Nspe].[am]}$$$$V2.0 | >95 |
| PEPTIDE1{[NLys].[Nspe].[Nspe].[NLys].[Nspe].[Nspe].[am]}$$$$V2.0 | >95 |
| PEPTIDE1{[Nae].[Nphe].[Nphe].[Nae].[Nphe].[Nphe].[Nae].[Nphe].[Nphe].[Nae].[Nphe].[Nphe].[am]}$$$$V2.0 | >95 |
| PEPTIDE1{[Nae].[Nspe].[Nspe].[Nae].[Nspe].[Nspe].[Nae].[Nspe].[Nspe].[Nae].[Nspe].[Nspe].[am]}$$$$V2.0 | >95 |

Strings that start with PEPTIDE1 are HELM notation: dots part the residues, brackets hold end groups and non-standard residues. One purity is given for all peptides; the source may state it once.
